The filed quantity is “Percent Effect” (%). The controls that fix the scale are not given in the record; negative values are as filed. This is an unselected part of the compounds tested. A dash means the value is not listed here; it may have been measured.

The chains behind the UniProt entries cited, without tags or fusion partners.
UniProt P9WPC5, whole entry: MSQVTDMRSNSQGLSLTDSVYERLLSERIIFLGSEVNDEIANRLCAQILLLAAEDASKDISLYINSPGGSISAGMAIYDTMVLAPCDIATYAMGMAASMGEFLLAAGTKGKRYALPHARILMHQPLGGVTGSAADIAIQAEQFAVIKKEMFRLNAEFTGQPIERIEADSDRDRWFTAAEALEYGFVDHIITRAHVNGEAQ
UniProt P9WPC3, whole entry partner: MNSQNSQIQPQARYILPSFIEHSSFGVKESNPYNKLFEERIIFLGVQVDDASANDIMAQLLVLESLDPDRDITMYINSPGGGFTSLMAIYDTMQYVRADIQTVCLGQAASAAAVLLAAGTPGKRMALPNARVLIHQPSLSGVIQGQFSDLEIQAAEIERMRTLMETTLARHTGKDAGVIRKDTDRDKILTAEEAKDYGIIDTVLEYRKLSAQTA
UniProt P9WFT3, whole entry: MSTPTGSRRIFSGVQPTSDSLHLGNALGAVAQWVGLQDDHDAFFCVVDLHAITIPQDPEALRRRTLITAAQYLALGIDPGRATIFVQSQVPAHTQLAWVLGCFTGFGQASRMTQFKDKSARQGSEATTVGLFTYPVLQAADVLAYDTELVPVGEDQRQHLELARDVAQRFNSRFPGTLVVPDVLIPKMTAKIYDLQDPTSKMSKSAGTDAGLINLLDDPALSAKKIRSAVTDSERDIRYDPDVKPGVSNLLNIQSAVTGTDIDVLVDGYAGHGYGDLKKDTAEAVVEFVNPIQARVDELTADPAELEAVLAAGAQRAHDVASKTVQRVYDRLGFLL
UniProt P9WNZ1, whole entry: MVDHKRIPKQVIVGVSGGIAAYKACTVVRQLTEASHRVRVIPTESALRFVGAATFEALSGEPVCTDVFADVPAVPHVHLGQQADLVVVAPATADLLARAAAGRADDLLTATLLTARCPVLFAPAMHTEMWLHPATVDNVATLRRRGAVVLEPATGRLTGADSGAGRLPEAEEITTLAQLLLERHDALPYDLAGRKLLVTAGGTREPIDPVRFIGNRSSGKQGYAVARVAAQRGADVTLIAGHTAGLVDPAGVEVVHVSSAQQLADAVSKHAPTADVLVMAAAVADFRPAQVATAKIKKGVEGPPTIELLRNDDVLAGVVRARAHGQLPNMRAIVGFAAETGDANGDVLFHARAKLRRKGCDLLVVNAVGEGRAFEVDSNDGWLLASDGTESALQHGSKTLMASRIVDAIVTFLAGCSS

ClpP1P2: 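ClpP1P2, Mycobacterium tuberculosis (UniProt P9WPC5 and UniProt P9WPC3). Protease assay of ClpP1P2, read by the AMC dye that it sets free. Concentration: 50 µM. Direction is inferred from only a few compounds that gave an IC50; most scored high, so higher reads as stronger inhibition. Most other retested compounds had strongly negative values. Size under these conditions: about 69,000 compounds, about 10 of them at 50% or above in at least one test.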
Toxoplasma: 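Assay of Toxoplasma gondii numbers, read through their beta-galactosidase reporter with a colour substrate. Tested at 10 µM. The record gives no direction; the compounds picked for IC50 retests had high values, so higher reads as fewer parasites. About 67,000 compounds were tested under these conditions; 0.38% (about 260) showed 50% or more at least once.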
MtTrpRS: 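Tryptophan-tRNA ligase, Mycobacterium tuberculosis (UniProt P9WFT3). Enzyme assay of tryptophanyl-tRNA synthetase; the read-out is not stated. Compounds at 10 µM. Direction is not recorded; retested compounds ran higher, which suggests that high means inhibition. Size under these conditions: about 65,000 compounds, about 64 of them at 50% or above in at least one test.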
CoaBC: 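Coenzyme A biosynthesis protein CoaBC, Mycobacterium tuberculosis (UniProt P9WNZ1). Enzyme assay of CoaBC with a phosphate dye (Biomol Green) read at 650 nm. Tested at 30 µM. Higher reads as stronger inhibition, judged from the few compounds that gave an IC50. Most strong results did not repeat in a second test. About 67,000 compounds were tested under these conditions; 0.06% (about 40) showed 50% or more at least once.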

compound,ClpP1P2,Toxoplasma,MtTrpRS,CoaBC
CN(C)c1nccc(N2CCO[C@H]3CN(CC4CCOCC4)C[C@H]32)n1,-1.111%,-,1.727%,5.806%
O=C1C(NS(=O)(=O)c2ccc(F)c(F)c2)CCN1Cc1ccccc1 (configuration not stated),-13.55%,-24.65%,-5.387%,3.675%
COCCN1CCC2(CCN(c3ncccn3)CC2)C1=O.O=C(O)C(F)(F)F,-,8.122%,-,-
Cc1nc(CNC(C(=O)N2CCOCC2)C(C)C)no1 (configuration not stated),11%,-10.99%,-1.372%,-13.03%
CN1C[C@H]2N(c3ncccn3)CCC[C@@]2(C(=O)NCC2CC2)C1,12.55%,-,-,2.469%
COCCC(=O)N1CCCC2(CCN(c3ccccc3)C2=O)C1 (configuration not stated),-3.58%,-11.58%,-6.831%,-3.475%
CCN(C)C(=O)c1ccc(N(C)Cc2cc(-c3cccnc3)no2)nc1,-9.813%,-,2.2%,-3.075%
CCN1Cc2nc(OC)c(CNC(=O)CCC3CCCC3)cc2C1=O,7.73%,5.626%,3.613%,7.407%
CSCCC(=O)N1CCN(CC(C)(C)O)CC1,-4.491%,11.53%,-2.878%,6.258%
Cc1cn2c(n1)CCC(NC(=O)c1nc(C)ncc1Cl)C2 (configuration not stated),1.648%,-3.721%,0.2346%,4.359%
CC(C)c1nc(C2CCCN2c2cnc3ccccc3n2)no1 (configuration not stated),-31.18%,-8.229%,1.3%,4.339%
O=C(c1ccoc1)N1CC[C@@H]2O[C@@H](COCCN3CCCC3)CC[C@@H]21,8.082%,-,-3.285%,-4.26%
O=C(c1cnccn1)N1CCCC2(CCN(Cc3ccsc3)C2)C1 (configuration not stated),-4.466%,-,-5.408%,-6.535%
O=C(NCC1CCOCC1)c1cc(-c2cccnc2)c2cnccc2n1,-32.86%,0.8714%,-6.413%,0%
c1ccc(CN2CC[C@H]3[C@H]2CCN3c2ncccn2)nc1,0.087%,-,-3.03%,10.36%
COCCN1CCC(CN(CC2CCCO2)C(=O)Cn2cccn2)CC1 (configuration not stated),-3.768%,7.984%,2.348%,-0.8424%
c1ccc(OCCNC2CCCN(Cc3noc(C4CC4)n3)C2)cc1 (configuration not stated),-23.83%,2.083%,-6.304%,1.575%
CCN(CC)C(=O)CN1CCc2nc(C3CCNCC3)nc(NC)c2C1.Cl,-,-1.972%,-,-
Cn1c(Cn2cccn2)nnc1C1CCCN(c2ccncc2)C1 (configuration not stated),-9.813%,2.308%,-0.5418%,-3.625%
CC(C)N1CCCn2c(nc(CNC(=O)c3nccn3C)cc2=O)C1.O=C(O)C(F)(F)F.O=C(O)C(F)(F)F,-,-11.13%,-,-
CCn1nc(CNC(=O)C2CC(=O)N(C3CCCC3)C2)c2ccccc21 (configuration not stated),-10.75%,-1.962%,-3.947%,-4.051%
COC(=O)N1CCC(Nc2ccc(C#N)c(Cl)c2)C1 (configuration not stated),-19.21%,14.99%,-0.0657%,-3.271%
Cc1cc(C(=O)N2CCC(n3cc(CO)nn3)CC2)ccc1F,-7.662%,14.01%,0.819%,5.95%
O=C(CC1CC1)N1C[C@@H]2CN(c3ccccc3)C(=O)[C@@H]2C1,0.3197%,-,-7.413%,5.277%
CCc1nccc(CN2CCC(CNC(=O)[C@H]3CC[C@H](C)CC3)C2)n1 (some centres not stated),2.73%,-6.894%,-1.812%,-3.498%
O=S1(=O)CCC(n2cc(C3=CCN(CCc4ccccc4)CC3)cn2)C1 (configuration not stated),1.197%,-2.163%,3.056%,3.902%
N[C@@H]1CCN(Cc2ccc(-c3nc(-c4cccnc4)cc(=O)[nH]3)cc2)C1,14.08%,2.041%,-3.153%,3.342%
CO[C@H]1CCN(S(=O)(=O)c2cn(C)cn2)[C@H]1Cc1cccnc1,0.8806%,-,2.204%,4.442%
O=C(c1cscn1)N1CC[C@@H]2[C@@H]1CCN2c1ccccn1,-1.95%,-,-6.853%,1.833%
COc1ccccc1OCCC(=O)N1CCCC1Cn1cccn1 (configuration not stated),-38.22%,-8.391%,-9.758%,6.769%
c1cc(-c2ccc3c(c2)C2(CC3)CCN(c3nncs3)CC2)ccn1,-8.301%,15.98%,-0.6006%,8.261%
CC(C)(C)c1n[nH]c(C2CN(CCNC3CCCCC3)CCO2)n1 (configuration not stated),-3.475%,-25.11%,-0.854%,0.2198%
Cc1cc(C2CCC2)nc(N(C)Cc2cc(-c3ccccn3)no2)n1,3.169%,18.78%,2.252%,2.418%
[H][C@@]12CCN(Cc3ccoc3)C[C@@]1([H])O[C@@H](c1ccnc(C(C)C)n1)C2,-,11.76%,-,-
CSc1ccc(NC(=O)NCC(O)C(C)C)cc1F (configuration not stated),-2.311%,3.725%,-5.683%,-6.016%
CC(=O)N1CCN(C2CCc3ccccc32)CC1 (configuration not stated),0.661%,-1.531%,-7.245%,4%
COCCN1C(=O)CO[C@H]2CN(Cc3ccccc3OC)C[C@H]21,-7.749%,-,-0.4647%,3.226%
Cc1ccc(CN2CCCn3nnc(COCC4CC4)c3C2)s1,15.6%,-,2.643%,8.29%
O=C(O)C(F)(F)F.[H][C@@]12CCN(S(C)(=O)=O)CC[C@]1(C(=O)Nc1ccccc1)CCN2CC,-,-13.52%,-,-
COCC(C)NS(=O)(=O)c1ccc(Br)cn1 (configuration not stated),6.561%,-1.921%,-1.574%,-6.452%
OCc1c(Cl)ncn1-c1ccccc1,7.302%,-4.809%,5.032%,6.734%
O=C(NCc1cn2c(n1)CN(Cc1ccccn1)CC2)C1CCC1,-1.665%,-,4.394%,7.166%
CC(C)n1cnnc1CN1C(=O)CCc2ccccc21,-12.2%,-7.666%,-2.716%,3.498%
O=C(CSc1ccc2c(c1)OCCO2)NS(=O)(=O)C1CCCCC1,-10.1%,-8.258%,-7.583%,2.954%
COCC1CCN(C(=O)c2cccc(S(=O)(=O)NCC3(C)COC3)c2)C1 (configuration not stated),-5.362%,0.6911%,1.509%,-8.811%
CC(NC(=O)c1ccc(=O)n(C)c1)c1ccc(OCC2CC2)c(F)c1 (configuration not stated),-13.41%,1.571%,-2.968%,3.158%
CCc1cc(CNCc2ccccc2N(C)C2CCN(C)CC2)on1,13.81%,20.77%,-1.817%,0.2484%
CC(C)S(=O)(=O)N(C)C(=O)CCc1ccsc1,-14.87%,5.918%,-1.018%,0.489%
COCCN1CCC(CNC(=O)C2(c3ccc(F)cc3)CCC2)CC1,-29.19%,-15.18%,-2.715%,3.704%
CCNC(c1ccc(Br)cc1)c1cccnc1 (configuration not stated),-15.63%,-17.36%,3.549%,-0.3727%
CCn1ncc2c1C(COCC1CC1)CN(C(=O)c1ccncn1)C2.O=C(O)C(F)(F)F (configuration not stated),-,-10.76%,-,-
O=C(Cc1ccncc1)N1C[C@@H]2CC[C@H](C1)N(Cc1ccccc1)C2=O,-7.204%,-,-6.245%,-6.438%
O=C(O)C(F)(F)F.[H][C@]12C[C@H](C(=O)NC)N(S(C)(=O)=O)[C@@]1([H])CN(Cc1csc(C)n1)C2,-,-8.675%,-,-
O=S1(=O)COCCN1CCOc1ccccc1,-3.052%,-2.253%,-5.142%,-0.1209%
Cc1cc(N(C)C)nc(N(C)Cc2csc(C)n2)n1,0.2935%,-2.14%,-0.09141%,4.516%
CCn1cc(C(=O)N2CCCC(c3noc(C)n3)C2)cn1 (configuration not stated),-10.45%,-1.636%,2.101%,-7.507%
CN(C)c1ncccc1CNC(=O)NCCN(C)C1CCCC1,-11.49%,15.71%,6.497%,-4.307%

The first 6 entries again:

CN(C)c1nccc(N2CCO[C@H]3CN(CC4CCOCC4)C[C@H]32)n1 gave ClpP1P2: -1.111%; MtTrpRS: 1.727%; CoaBC: 5.806%.
O=C1C(NS(=O)(=O)c2ccc(F)c(F)c2)CCN1Cc1ccccc1 (configuration not stated) gave ClpP1P2: -13.55%; Toxoplasma: -24.65%; MtTrpRS: -5.387%; CoaBC: 3.675%.
COCCN1CCC2(CCN(c3ncccn3)CC2)C1=O.O=C(O)C(F)(F)F gave Toxoplasma: 8.122%.
Cc1nc(CNC(C(=O)N2CCOCC2)C(C)C)no1 (configuration not stated) gave ClpP1P2: 11%; Toxoplasma: -10.99%; MtTrpRS: -1.372%; CoaBC: -13.03%.
CN1C[C@H]2N(c3ncccn3)CCC[C@@]2(C(=O)NCC2CC2)C1 gave ClpP1P2: 12.55%; CoaBC: 2.469%.
COCCC(=O)N1CCCC2(CCN(c3ccccc3)C2=O)C1 (configuration not stated) gave ClpP1P2: -3.58%; Toxoplasma: -11.58%; MtTrpRS: -6.831%; CoaBC: -3.475%.

From ChEMBL document CHEMBL3988442, “University of Dundee, Small-Polar-MMV Screening Library” (2021).